At least one compound was matched to its structure with a doubt left.
Test system: PC12 cells
Assay: Inhibition of GLP-1, exendin-4 and NGF induced neurite outgrowth in PC12 cells
Assay type: cell-based, rat
Details: 48 h; PD98059 50 μM, LY294002 40 μM, H89 20 μM, or exendin (9-39) with exendin-4
Method: NGF at 50 ng/ml and forskolin (PKA activator) (20 μM) were used as positive controls in these treatments.

## O=c1cc(N2CCOCC2)oc2c(-c3ccccc3)cccc12 [LY294002]
  effect on GLP-1, exendin-4 or NGF induced neurite outgrowth: reduced GLP-1 and exendin-4 induced neurite outgrowth

From patent publication US10941187B2 (The United States of America, as represented by the …, priority 2001, dated 2021)
